This assay concerns croton oil-induced granuloma. The assay can be described thus: Croton Oil-induced Granuloma (granuloma pouch). It is filed as in vivo, male Sprague-Dawley rats. The conditions noted are these: Rattus norvegicus, 168 h, read-out: Effects on pouch fluid (exudate) volume, per cent of inhibition over the control, 1.0 mg/rat; 7 days. On the procedure:
Groups of 5 male Sprague-Dawley rats each weighing 160-180 g were used. Under ether anesthesia, the dorsum of animals was closely clipped, and air sac was formed by injecting air (20 ml) subcutaneously. Next day cotton seed oil containing 1% croton oil was injected into the air sac. Drugs to be tested were suspended in the cotton seed oil containing 1% croton oil, and administered. After 7 days, the blood was taken from the animal under ether anesthesia. Then, the granuloma pouch fluid (exudate) was collected, and the fluid volume was measured. The pouch wall formed around granuloma and thymus were also excised and weighed.

On to `CCCCC(=O)OCC(=O)[C@H]1[C@H](C)C[C@H]2[C@@H]3C[C@H](F)C4=CC(=O)C=C[C@]4(C)[C@@]3(F)[C@@H](O)C[C@@]21C` [Diflucortolone valerate, reference compound], for which the inhibition in vivo at 1 mg is 90.8 ± 3.3%.

For the origin of these results see patent publication US5945404A, “21-Substituted steroid compound” (priority 1993, dated 1999).
